Measurements as given in paper PMC8279495, “Design, Synthesis, and Biological Evaluation of Boron-Containing Macrocyclic Polyamines and Their Zinc(II) Complexes for Boron Neutron Capture Therapy” (Journal of Medicinal Chemistry, 2021).

Key:
HeLa S3 cells = test: Intracellular boron uptake by ICP–MS, HeLa S3 cells; type: cell-based, human; details: ratio of intracellular boron uptake, 30 μM, 24 h
A549 cells = test: Intracellular boron uptake by ICP–MS, A549 cells; type: cell-based, human; details: ratio of intracellular boron uptake, 30 μM, 24 h

Compound | T/N ratio (HeLa S3/IMR90) (HeLa S3 cells) | T/N ratio (A549/IMR90) (A549 cells)
N[C@@H](Cc1ccc([10B](O)O)cc1)C(=O)O [compound 2, L-4-boronophenylalanine] | 3.00 | 2.90
sodium mercaptoborate [compound 1] | 0.77 | 0.80
